Measured values reported in PubChem BioAssay AID248 (DTP/NCI, 2004).
The list does not hold the whole screen: it is rich in T/C values a quarter to a half above the control, in often repeated tests (any T/C) and in doses without a T/C. Other doses and runs of a compound stand elsewhere. T/C gives the treated animals as a percentage of the vehicle group. Some entries give survivors of the animals treated and no T/C: the source holds a T/C of zero for them, seemingly a mark for toxic or unscored doses. Some doses without a T/C left all or most animals alive at the check, yet need not have been tolerated: the source hardly ever lists a survival T/C far under the control, and the zero likely stands for such cases as well. Survivors were counted at the toxicity check, usually on the fifth day, unless a day is given; later deaths do not show. Schedule codes are those of the source, read here as Q, the interval in days (D) or hours (H), X, the number of doses. Some doses were run more than once; their values stand side by side, smallest first. Some schedules carry Z or #; the key to these is not given. Where survival is the endpoint, this PubChem deposit counts one and a half times the control or more as active, and values a quarter to a half above the control carry no call in these data; other NCI protocols may use other cut-offs. Some T/C values carry the count of animals alive at the toxicity check (mostly the fifth day); where none is given, no animal had died by that day.

Tested on: L1210 leukemia ip in BDF1 mice, survival T/C
Assay: NCI In Vivo Anticancer Drug Screen. Data for tumor model L1210 Leukemia (intraperitoneal) in B6D2F1 (BDF1) mice
Details: T/C endpoint: mean survival time, higher T/C = longer survival

## O=NN(CCCl)C(=O)NCCCl
dose: 20.0 mg/kg/injection, schedule: Q01DX001 (ip), vehicle: saline, evaluated on day 45
  T/C: 377 % of control
dose: 20.0 mg/kg/injection, schedule: Q01DX001 (ip), vehicle: saline, evaluated on day 60
  T/C: 295, 498, 721 % of control
dose: 24.0 mg/kg/injection, schedule: Q## X Z (ip), vehicle: saline
  survivor count: 2 of 10 and 5 of 10
dose: 25.0 mg/kg/injection, schedule: Q01DX001 (ip), vehicle: saline, evaluated on day 30
  T/C: 188, 256, 285 % of control
dose: 25.0 mg/kg/injection, schedule: Q01DX001 (ip), vehicle: saline, evaluated on day 45
  T/C: 425 % of control
dose: 25.0 mg/kg/injection, schedule: Q01DX001 (ip), vehicle: saline, run until all animals had died
  T/C: 289 % of control
dose: 25.0 mg/kg/injection, schedule: Q01DX Z (ip), vehicle: carboxymethylcellulose (CMC)
  T/C: 127 % of control
dose: 27.0 mg/kg/injection, schedule: Q01DX001 (ip), vehicle: clinical formulation
  T/C: 348, 429, 462, 625 % of control
dose: 30.0 mg/kg/injection, schedule: Q01DX001 (ip), vehicle: saline + alcohol, evaluated on day 5
  T/C: 330 and 366 % of control
dose: 30.0 mg/kg/injection, schedule: Q01DX001 (ip), vehicle: saline + alcohol, evaluated on day 45
  T/C: 257, 442, 450, 460, 503 % of control
dose: 30.0 mg/kg/injection, schedule: Q01DX001 (ip), vehicle: saline + alcohol, evaluated on day 60
  T/C: 336, 530, 609, 625, 631, 666 % of control
dose: 30.0 mg/kg/injection, schedule: Q01DX001 (ip), vehicle: saline, evaluated on day 5
  T/C: 368 % of control
dose: 30.0 mg/kg/injection, schedule: Q01DX001 (ip), vehicle: saline, evaluated on day 30
  T/C: 308 and 382 % of control
dose: 30.0 mg/kg/injection, schedule: Q01DX001 (ip), vehicle: saline, evaluated on day 45
  T/C: 429 % of control
dose: 30.0 mg/kg/injection, schedule: Q01DX001 (ip), vehicle: saline, evaluated on day 60
  T/C: 368 % of control
dose: 31.0 mg/kg/injection, schedule: Q04DX002 (ip), vehicle: saline + alcohol
  T/C: 240, 281, 306, 326 % of control
dose: 32.0 mg/kg/injection, schedule: Q01DX009 (ip), vehicle: carboxymethylcellulose (CMC)
  survivor count: 9 of 10
dose: 32.0 mg/kg/injection, schedule: Q01DX009 (ip), vehicle: other
  survivor count: 9 of 10
dose: 32.0 mg/kg/injection, schedule: Q01DX009 (ip), vehicle: saline
  survivor count: 10 of 10
dose: 32.0 mg/kg/injection, schedule: Q01DX Z (iv), vehicle: saline
  T/C: 131 % of control
dose: 32.0 mg/kg/injection, schedule: Q#A X Z (oral), vehicle: saline
  survivor count: 6 of 6
dose: 39.0 mg/kg/injection, schedule: Q01DX001 (ip), vehicle: saline, evaluated on day 30
  T/C: 286 % of control
dose: 39.0 mg/kg/injection, schedule: Q01DX001 (ip), vehicle: saline, evaluated on day 45
  T/C: 494 % of control
dose: 39.0 mg/kg/injection, schedule: Q01DX001 (ip), vehicle: saline, run until all animals had died
  T/C: 284, 306, 379 % of control
dose: 40.0 mg/kg/injection, schedule: Q01DX001 (ip), vehicle: clinical formulation
  T/C: 540, 568, 573, 581 % of control
dose: 40.0 mg/kg/injection, schedule: Q01DX001 (ip), vehicle: saline + alcohol, evaluated on day 45
  T/C: 252, 294, 355, 408 % of control
dose: 40.0 mg/kg/injection, schedule: Q01DX001 (ip), vehicle: saline + alcohol, evaluated on day 60
  T/C: 389, 395, 441, 481, 577, 582, 641 % of control
dose: 40.0 mg/kg/injection, schedule: Q01DX001 (ip), vehicle: saline + alcohol
  survivor count: 10 of 10
dose: 42.6 mg/kg/injection, schedule: Q04DX003 (ip), vehicle: saline
  survivor count: 5 of 10
dose: 48.0 mg/kg/injection, schedule: Q01DX001 (ip), vehicle: Klucel (hydroxypropylcellulose) (HPC)
  T/C: 128 % of control
dose: 48.0 mg/kg/injection, schedule: Q01DX005 (ip), vehicle: saline
  survivor count: 9 of 10
dose: 48.0 mg/kg/injection, schedule: Q01DX005 (oral), vehicle: saline
  survivor count: 9 of 10
dose: 48.0 mg/kg/injection, schedule: Q01DX009 (ip), vehicle: saline
  survivor count: 10 of 10
dose: 48.0 mg/kg/injection, schedule: Q01DX009 (oral), vehicle: saline
  survivor count: 10 of 10
dose: 48.0 mg/kg/injection, schedule: Q01DX009 (sc), vehicle: saline
  survivor count: 10 of 10
dose: 48.0 mg/kg/injection, schedule: Q03DX Z (oral), vehicle: saline
  T/C: 131 % of control [5 of 6 alive]
dose: 50.0 mg/kg/injection, schedule: Q01DX Z (ip), vehicle: carboxymethylcellulose (CMC)
  survivor count: 6 of 6
dose: 59.0 mg/kg/injection, schedule: Q01DX001 (ip), vehicle: other
  T/C: 129 % of control
dose: 60.0 mg/kg/injection, schedule: Q01DX001 (ip), vehicle: clinical formulation
  T/C: 140, 195, 259, 416 % of control
dose: 64.0 mg/kg/injection, schedule: Q#A X Z (oral), vehicle: saline
  survivor count: 2 of 6
dose: 65.0 mg/kg/injection, schedule: Q01DX001 (ip), vehicle: saline
  survivor count: 10 of 10
dose: 75.0 mg/kg/injection, schedule: Q01DX001 (ip), vehicle: propolene glycol
  survivor count: 8 of 10
dose: 96.0 mg/kg/injection, schedule: Q01DX001 (ip), vehicle: saline
  survivor count: 8 of 10 and 10 of 10
dose: 96.0 mg/kg/injection, schedule: Q01DX001 (sc), vehicle: saline
  survivor count: 5 of 10
dose: 96.0 mg/kg/injection, schedule: Q01DX005 (ip), vehicle: saline
  survivor count: 0 of 10
dose: 96.0 mg/kg/injection, schedule: Q01DX005 (oral), vehicle: saline
  survivor count: 2 of 10
dose: 96.0 mg/kg/injection, schedule: Q01DX009 (ip), vehicle: saline
  survivor count: 0 of 10
dose: 96.0 mg/kg/injection, schedule: Q01DX009 (oral), vehicle: saline
  survivor count: 4 of 10
